Source: PubChem BioAssay AID2685 (National Center for Advancing Translational Sciences (NCATS), 2010)
This is one part of the list. Further columns of the screen follow, without active or inactive calls. Most of these compounds were active or inconclusive in the main read-out, so they are no random draw. Potencies come from curve fits of mixed quality, noted in brackets.

Assay: qHTS Assay for Lipid Storage Modulators in Drosophila S3 Cells;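 as to cell number change: cells counted by Cell Tracker Red CMTPX staining in the red channel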
Details: BODIPY lipid droplet fluorescence, 18-24 h; for cell number change: measured here: cell count max response, cells fed with added oleic acid
Method in brief: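 Drosophila S3 cells got compounds at several concentrations plus oleic acid (400 uM solution). Laser-scanning cytometry with 488 nm excitation read lipid droplets at 500-530 nm and cells at 575-640 nm. Percent activity was relative to 20 uM Triacsin C.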

[1] = measured here: lipid fluorescence (Fed channel) AC50, cells fed with added oleic acid
[2] = measured here: cell number channel AC50, cells fed with added oleic acid

Question: What does the source list for `COc1ccc(S(=O)(=O)N2CCN(c3ncccn3)CC2)cc1OC`?
Answer: cell number change: 5.47%; AC50 [1]: 9.2 µM [rising, single point]

Question: For `CC(C)(C)NC(=O)c1cccc(NC(=O)c2ccco2)c1`, which cell number change is on record?
Answer: -19.9%

Question: What about the AC50 [1] of the same molecule?
Answer: 18.4 µM [falling, single point]

Question: Which results are given for `Cc1cc(C)c(NC(=O)C(=O)NCc2ccco2)c(C)c1`?
Answer: cell number change: 44.6%; AC50 [2]: 2.91 µM [rising, full curve]

Question: What does the source list for `CSc1nnc(-c2sccc2-n2cccc2)o1`?
Answer: cell number change: 33.7%; AC50 [2]: 32.6 µM [rising, single point]

Question: Which results are given for `Cc1ccc2cc(C#N)c(SCc3nnc(-c4ccccc4[N+](=O)[O-])o3)nc2c1`?
Answer: cell number change: -15.8%; AC50 [1]: 1.46 µM [falling, partial curve, poor fit]

Question: With `O=C(Nc1cc(Sc2ccccn2)cc([N+](=O)[O-])c1)c1cccc(F)c1` as the molecule, how does the cell number change read?
Answer: 19%

Question: What about the AC50 [1] of the same molecule?
Answer: 16.4 µM [rising, partial curve]

Question: Which cell number change does the source give for `Cn1nnnc1NCc1cccc(Cl)c1Cl` here?
Answer: 10.2%

Question: Which cell number change does the source give for `COCC(C)n1c(C)cc(C(=O)COC(=O)c2nc3nc(C)cc(C)n3n2)c1C` (stereo not drawn) here?
Answer: 16.1%

Question: And the AC50 [1]?
Answer: 0.116 µM [falling, single point]

Question: What does the source list for `CCn1c(SCC(=O)Nc2ccccc2C)nc2nc3c(cc2c1=O)COC(C)(C)C3`?
Answer: cell number change: 16.3%; AC50 [1]: 0.92 µM [rising, full curve, poor fit]

Question: With `CCC(Oc1ccccc1C)C(=O)N1CCCN(C)CC1` (stereo not drawn) as the molecule, how does the cell number change read?
Answer: 11%

Question: For `COc1cc(-c2nnc(SCc3ccccc3Cl)o2)cc(OC)c1OC`, which AC50 [1] is on record?
Answer: 23.1 µM [rising, partial curve]

Question: For `COc1cccc2oc3cc(C#Cc4ccccn4)ccc3c(=O)c12`, which AC50 [1] is on record?
Answer: 20.6 µM [falling, partial curve]

Question: With `CN1C(=O)C2(c3ccccc31)N(C)CC(c1ccccc1)C21SC(=S)N(Cc2ccco2)C1=O` (stereo not drawn) as the molecule, how does the AC50 [1] read?
Answer: 29.1 µM [rising, single point]

Question: Which results are given for `CCOc1ccc(NC(=O)CCCCn2c(=O)[nH]c3ccsc3c2=O)cc1`?
Answer: cell number change: 61.2%; AC50 [2]: 7.31 µM [rising, partial curve]

Question: For `O=C(COc1ccc2ccccc2c1)NNC(=O)C(=O)Nc1ccccc1`, which cell number change is on record?
Answer: 6.41%

Question: What about the AC50 [1] of the same molecule?
Answer: 23.1 µM [rising, single point]

Question: Which cell number change does the source give for `COc1ccc(C(=O)NCC(=O)OCc2ccc(Br)cc2)cc1` here?
Answer: -8.19%

Question: And the AC50 [1]?
Answer: 3.66 µM [rising, single point]

Question: For `O=C(COc1ccc(Cl)cc1)NCCCNC(=O)c1ccncc1`, which cell number change is on record?
Answer: -23.8%

Question: Which cell number change does the source give for `N#Cc1ccccc1S(=O)(=O)c1ccccc1C(=O)Nc1ccccc1` here?
Answer: 28.9%

Question: And the AC50 [1]?
Answer: 2.31 µM [rising, single point]

Question: Which cell number change does the source give for `O=C(CNc1ccccc1)N/N=C/c1c[nH]c2ccccc12` here?
Answer: 1.28%

Question: And the AC50 [1]?
Answer: 29.1 µM [rising, single point]

Question: With `O=C(O)c1cccc(NC(=O)c2ccc(S(=O)(=O)c3ccccc3)cc2)c1` as the molecule, how does the cell number change read?
Answer: -23%

Question: What about the AC50 [1] of the same molecule?
Answer: 25.9 µM [falling, single point]

Question: Which cell number change does the source give for `COc1ccc2c(c1)[C@@H]1[C@H](CO2)[C@H](c2ccccc2)[C@]2(C)C(=O)NCC(=O)N12` here?
Answer: 12.1%

Question: And the AC50 [2]?
Answer: 0.00461 µM [rising, full curve, poor fit]

Question: Which cell number change does the source give for `COC(=O)CC1(c2cccc3ccccc23)C(=O)c2ccccc2C1=O` here?
Answer: -46.5%

Question: And the AC50 [2]?
Answer: 0.00461 µM [falling, full curve, poor fit]

Question: What about the AC50 [1] of the same molecule?
Answer: 0.116 µM [falling, full curve, poor fit]

Question: Which cell number change does the source give for `CCN(CC)c1ccc(C(=O)NNC(=O)CNC(=O)c2ccco2)cc1` here?
Answer: 8.84%

Question: Which cell number change does the source give for `CCN1/C(=C\c2ccc3ccccc3[n+]2CC)Sc2cc(C)ccc21` here?
Answer: -98.1%

Question: What about the AC50 [2] of the same molecule?
Answer: 9.2 µM [falling, partial curve]

Question: What about the AC50 [1] of the same molecule?
Answer: 0.411 µM [falling, full curve]

Question: Which cell number change does the source give for `COc1ccc(C(=O)N/N=C\c2ccc(OC)c(COc3ccccc3Br)c2)c(OC)c1` here?
Answer: 13.4%

Question: For `O=C(NCCCc1ccccc1)c1cccs1`, which cell number change is on record?
Answer: 4.31%

Question: What about the AC50 [1] of the same molecule?
Answer: 20.6 µM [rising, single point]

Question: What does the source list for `CC[n+]1oc(-c2ccccc2)cc1C`?
Answer: cell number change: 0.213%; AC50 [2]: 4.11 µM [falling, single point]; AC50 [1]: 4.11 µM [falling, single point]

Question: Which results are given for `Cc1ccc(-n2cccc2/C=C2/C(=N)N3C(=NC2=O)SN=C3S(C)(=O)=O)cc1Cl`?
Answer: cell number change: 2.26%; AC50 [1]: 4.11 µM [rising, single point]

Question: Which results are given for `N#Cc1cccc(NC(=O)COC(=O)C2CCC2)c1`?
Answer: cell number change: -29.6%; AC50 [1]: 2.91 µM [falling, full curve]

Question: Which cell number change does the source give for `CCCCOC(=O)Nc1sc2nc(C)cc(C)c2c1-n1cccc1` here?
Answer: -23.4%

Question: And the AC50 [1]?
Answer: 18.4 µM [falling, single point]

Question: With `COc1ccccc1CNS(=O)(=O)c1ccc(Cl)s1` as the molecule, how does the cell number change read?
Answer: -2.86%

Question: For `O=C(CCn1c(=O)oc2cc(Cl)ccc21)Nc1ccc(O)cc1`, which cell number change is on record?
Answer: 12.6%

Question: And the AC50 [1]?
Answer: 29.1 µM [rising, single point]

Question: Which AC50 [1] does the source give for `COc1cccc(N/N=C/c2cccc(Br)c2O)c1` here?
Answer: 1.46 µM [rising, partial curve]

Question: With `CC(C)(C)c1ccc(C(=O)NCCC(=O)N2CCCC2)cc1` as the molecule, how does the cell number change read?
Answer: 17.1%

Question: What about the AC50 [1] of the same molecule?
Answer: 23.1 µM [falling, single point]

Question: Which results are given for `COc1ccc(C(=O)/C=C/Sc2nc3ccccc3o2)cc1`?
Answer: cell number change: -67.7%; AC50 [2]: 10.3 µM [falling, partial curve]; AC50 [1]: 13 µM [falling, partial curve]

Question: Which cell number change does the source give for `CSc1ccccc1C(=O)N(C)Cc1ccccc1` here?
Answer: 45.2%

Question: What does the source list for `Cc1cc(Br)ccc1NC(=O)C1CSC2(C)CCC(=O)N12` (stereo not drawn)?
Answer: cell number change: 13.9%; AC50 [1]: 29.1 µM [rising, single point]

Question: For `COc1ccccc1/C=C1\SC(=S)N(CCC(=O)N2CCN(C)CC2)C1=O`, which cell number change is on record?
Answer: -10.3%

Question: And the AC50 [1]?
Answer: 6.51 µM [falling, single point]

Question: Which results are given for `CCc1ccc(C(=O)NCc2ccc(Cl)cc2Cl)cc1`?
Answer: cell number change: -22.7%; AC50 [1]: 0.00461 µM [rising, full curve, poor fit]

Question: Which cell number change does the source give for `CCC(Sc1nc2cc3c(cc2c(=O)n1Cc1ccco1)OCO3)C(=O)Nc1ccccc1OC` (stereo not drawn) here?
Answer: -12%

Question: And the AC50 [1]?
Answer: 6.51 µM [rising, single point]

Question: Which AC50 [2] does the source give for `CCn1c(COc2ccc(=O)n(-c3ccccc3)n2)nnc1SCc1ccccc1C` here?
Answer: 0.92 µM [rising, full curve, poor fit]

Question: What does the source list for `CC1(C)Cc2c(cnn2-c2ccccc2)-c2c1c1ccccc1n2CC(O)CCl` (stereo not drawn)?
Answer: cell number change: -45.4%; AC50 [2]: 14.6 µM [falling, partial curve, poor fit]; AC50 [1]: 23.1 µM [falling, partial curve]

Question: Which cell number change does the source give for `COc1ccc(CCNC(=O)C2CCN(C(=O)c3ccc(F)cc3)CC2)cc1` here?
Answer: 1.32%

Question: For `O=C(NC1CCCCC1)c1ccc(Cn2cc(Cl)cn2)cc1`, which cell number change is on record?
Answer: 34.4%

Question: What about the AC50 [2] of the same molecule?
Answer: 1.46 µM [rising, full curve, poor fit]

Question: And the AC50 [1]?
Answer: 1.46 µM [rising, full curve]

Question: With `Cc1cccc(OCc2nnc(SC(C)C(=O)O)n2-c2ccccc2)c1` (stereo not drawn) as the molecule, how does the cell number change read?
Answer: -5.11%

Question: For `O=C(NCc1ccccn1)c1ccc(Cl)c(S(=O)(=O)N2CCCCCC2)c1`, which AC50 [2] is on record?
Answer: 1.03 µM [rising, full curve, poor fit]

Question: What about the AC50 [1] of the same molecule?
Answer: 0.0116 µM [falling, full curve, poor fit]

Question: With `Cc1cc(C)n(CCNS(=O)(=O)c2ccc(Cl)cc2)n1` as the molecule, how does the cell number change read?
Answer: -10.8%

Question: What about the AC50 [1] of the same molecule?
Answer: 18.4 µM [rising, partial curve]

Question: Which AC50 [1] does the source give for `O=C(Nc1ccc2c(c1)OCCO2)c1ccc(Cl)c([N+](=O)[O-])c1` here?
Answer: 20.6 µM [falling, single point]

Question: For `Cc1ccc(NC(=O)CN2C(=O)NC3(CCCCCCC3)C2=O)cc1C`, which cell number change is on record?
Answer: 1.31%

Question: And the AC50 [2]?
Answer: 5.8 µM [rising, single point]

Question: And the AC50 [1]?
Answer: 5.17 µM [rising, single point]

Question: Which results are given for `O=C(Nc1ccc2c(c1)CCC2)C1CCCN(c2ncccn2)C1` (stereo not drawn)?
Answer: cell number change: -37.7%; AC50 [2]: 29.1 µM [falling, single point]; AC50 [1]: 7.31 µM [falling, partial curve]

Question: With `Cc1ccc(NS(=O)(=O)c2ccc(C(=O)NCc3cccnc3)cc2)cc1` as the molecule, how does the cell number change read?
Answer: 37.8%

Question: And the AC50 [2]?
Answer: 2.06 µM [rising, full curve, poor fit]

Question: And the AC50 [1]?
Answer: 0.58 µM [falling, single point]

Question: With `COc1ccc(CNc2nc3c(c(=O)[nH]c(=O)n3C)n2Cc2ccccc2C)cc1` as the molecule, how does the cell number change read?
Answer: 23.2%

Question: What about the AC50 [1] of the same molecule?
Answer: 0.651 µM [rising, full curve, poor fit]

Question: Which cell number change does the source give for `CCNC(=S)N=Nc1c(O)n(Cc2ccc(Cl)cc2)c2ccccc12` here?
Answer: 8.94%

Question: And the AC50 [1]?
Answer: 2.06 µM [rising, single point]

Question: Which cell number change does the source give for `Cc1oc(CC(C)C)c(CN2CCCC2)c1C(=O)O` here?
Answer: -40.2%

Question: And the AC50 [2]?
Answer: 0.00517 µM [falling, full curve]

Question: And the AC50 [1]?
Answer: 1.3 µM [falling, full curve]

Question: What does the source list for `Cc1ccc2oc(C(=O)N(C)Cc3ccc(C)o3)c(C)c2c1`?
Answer: cell number change: -25.7%; AC50 [1]: 2.31 µM [falling, partial curve]

Question: For `Cc1ccc(S(=O)(=O)N2CCC(C(=O)N3CCC[C@H]3C(=O)NCc3ccccc3)CC2)cc1`, which cell number change is on record?
Answer: 15.5%

Question: Which cell number change does the source give for `COc1cc(SC)ccc1C(=O)Nc1ccc2c(c1)CCN2S(C)(=O)=O` here?
Answer: 6.64%

Question: And the AC50 [2]?
Answer: 0.13 µM [rising, full curve, poor fit]

Question: For `COc1cc(OC)c(C(=O)Nc2ccc(N(C)C)cc2)cc1OC`, which cell number change is on record?
Answer: -15.8%

Question: What about the AC50 [1] of the same molecule?
Answer: 16.4 µM [rising, partial curve]

Question: With `CCOc1ccc(NS(=O)(=O)c2ccc(OC)c(C)c2)cc1` as the molecule, how does the cell number change read?
Answer: 49.7%

Question: What about the AC50 [2] of the same molecule?
Answer: 6.51 µM [rising, partial curve, poor fit]

Question: And the AC50 [1]?
Answer: 23.1 µM [rising, single point]

Question: Which results are given for `O=[N+]([O-])c1cc(Cl)cc(/C=N/n2cnnc2)c1O`?
Answer: cell number change: -32.5%; AC50 [2]: 2.06 µM [falling, partial curve]; AC50 [1]: 6.51 µM [rising, partial curve, poor fit]

Question: For `NC(=O)c1ccc(NC(=O)CN2CCN(C(=O)c3ccco3)CC2)cc1`, which cell number change is on record?
Answer: 7.37%

Question: What about the AC50 [1] of the same molecule?
Answer: 0.58 µM [rising, single point]
